Source: patent US20220185818A1, “PYRROLOHETEROCYCLIC DERIVATIVE, PREPARATION METHOD THEREFOR, AND APPLICATION THEREOF IN MEDICINE” (Jiangsu Hengrui Medicine Co., Ltd., priority 2019, published 2022)

Test: Pharmacokinetics assay in mice
Details: female, C57, mouse, in vivo, po, 2 mg/kg

- AUC: 2470 ng·h/mL
- CL/F: 13.5 mL/min/kg
- Vd/F: 4.1 L/kg
Compound: Cc1cnc(Nc2ccnn2C)nc1-c1cc2n(c1)C(=O)N([C@H](CO)c1cccc(Cl)c1)C2 [Example 3, (S)-2-(1-(3-Chlorophenyl)-2-hydroxyethyl)-6-(5-methyl-2-((1-methyl-1H-pyrazol-5-yl)amino)pyrimidin-4-yl)-1H-pyrrolo[1,2-c]imidazol-3(2H)-one]
